PubChem BioAssay AID1259308 – NCATS, 2017
The whole screen tested about 59,000 reagents; this is a random part of them. About 1,510 of all reagents (2.6%) count as active. 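Calls use total luciferase alone and ignore viability, so some active siRNAs may act by altering cell number.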 Reagents against one gene are numbered here. Further read-outs or replicates are left out here. Reagent sequences are not shown.

Screen: 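Candidate targets for better recombinant protein yield in mammalian cells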 (primary screen)
System: human HEK293 embryonic kidney cells stably expressing firefly luciferase (HEK-CMV-Luc2-Hygro)
Reagent: single siRNA against human genes, 0.8 pmol siRNA per well
Time to read-out: 72 h
Read-out: 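Reporter luminescence and viable-cell signal on separate replicate plates, given as percent of non-targeting control and median/MAD z-scores, plus per-cell luciferase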
Direction: total luciferase, z-score: higher = more reporter protein produced
Active means: 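An siRNA counts as active if its total luciferase robust z-score exceeds 3; genes with two or more such siRNAs out of three were retested with fresh siRNAs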
Calls: active = raised luciferase; inactive = no rise

Knock-down of GPBP1 #1 resulted in: total luciferase, z-score -0.317; inactive.
For GPBP1 #2 the deposit lists total luciferase, z-score 0.492; inactive.
Silencing of GPBP1 #3 gave: total luciferase, z-score -0.159; inactive.
Depletion of ZNF607 #1 came out at: total luciferase, z-score -0.0767; inactive.
Depletion of ZNF607 #2 resulted in: total luciferase, z-score 1.33; inactive.
With knock-down of ZNF607 #3, the screen gave total luciferase, z-score -0.563; inactive.
With knock-down of PLEKHB1 #1, the screen gave total luciferase, z-score -0.334; inactive.
Depletion of PLEKHB1 #2 gave: total luciferase, z-score 1.22; inactive.
For PLEKHB1 #3, the values are total luciferase, z-score 0.259; inactive.
Depletion of PSME3IP1 #1 resulted in: total luciferase, z-score -0.243; inactive.
PSME3IP1 #2 showed total luciferase, z-score -0.0529; inactive.
After knock-down of PSME3IP1 #3 the results were total luciferase, z-score -0.521; inactive.

2 of these entries in another layout:
GPBP1 #3
- total luciferase, z-score: -0.159
- outcome: inactive

ZNF607 #1
- total luciferase, z-score: -0.0767
- outcome: inactive

Continued:
Against RBM33 #1 the deposit lists total luciferase, z-score -0.473; inactive.
Depletion of RBM33 #2 came out at: total luciferase, z-score -0.189; inactive.
RBM33 #3 showed total luciferase, z-score -0.258; inactive.
After knock-down of TTC13 #1, the record shows total luciferase, z-score -0.0857; inactive.
For TTC13 #2 the deposit lists total luciferase, z-score -0.568; inactive.
Against TTC13 #3, the values are total luciferase, z-score 0.377; inactive.
CHP2 #1 gave total luciferase, z-score -0.104; inactive.
CHP2 #2 showed total luciferase, z-score -0.599; inactive.
CHP2 #3 gave total luciferase, z-score -0.316; inactive.
